Assay: Permeability experiments in the 3D-BBB system (hiPS-BMECs on OrganoPlate 3-lane)
Conditions: human
Procedure: The 3D-BBB system using the OrganoPlate® 3-lane plate was constructed with some modifications to the protocol published by MIMETAS. During the differentiation of hiPS-BMECs, to separate the capillary side from the brain side, extracellular matrix hydrogel composed of 4 mg/mL collagen I (Cultrex 3D Matrix Rat Collagen-I, 5 mg/mL, AMSbio), 100 mM HEPES, and 3.7 mg/mL NaHCO3 was dispensed into the middle lane. The plate was incubated at 37°C for 15 min to polymerize collagen I. After incubation, HBSS (+) without phenol red (Fujifilm Wako) was added to the gel channel to prevent the gel from drying out. […] The suspension was injected into capillary lanes precoated with fibronectin/collagen IV solution (PharmCo-Cell). After seeding the cells, the plate was incubated for 4 h at a tilt to allow the cells to adhere to the gel. […]
Permeability experiments were performed on day 10, at 48 h after seeding hiPS-BMECs on the plate. […] In all permeability experiments, the amount of lucifer yellow transported through the paracellular pathway to the receiver side was measured with a SpectraMax i3x (Molecular Devices, San Jose, CA) as a measure of cell-to-cell tightness. […] The apparent permeability coefficient (Papp) was calculated as follows: Papp=(dQ/dt)/D0×S
where dQ/dt, D0, and S are the transport velocity of the test drugs, the initial concentration of test drugs on the donor side, and the surface area of the extracellular matrix hydrogel in the middle lane, respectively. The efflux ratio value was calculated from the Papp value in the capillary-to-brain (A-to-B) and brain-to-capillary (B-to-A) directions as follows: Effluxratio=Papp,B-to-A/Papp,A-to-B.
The test drugs were quantified using a high-performance liquid chromatography (HPLC)-tandem mass spectrometry system composed of a Nexera-XR (Shimazu, Kyoto, Japan) HPLC system connected to a Qtrap4500 (AB Sciex, Foster City, CA, USA) mass spectrometer with an electrospray ionization interface. […]

CC(C)NCC(O)COc1ccc(CC(N)=O)cc1 (stereo not drawn) [Atenolol]
Papp A→B at 4 h (pH 7.4): 0.822 ×10⁻⁶ cm/s
Papp B→A at 4 h (pH 7.4): 0.633 ×10⁻⁶ cm/s
efflux ratio at 4 h (pH 7.4, Efflux ratio (B-to-A/A-to-B), Control): 0.771
